The source of these data is patent publication US12697313B2, “Methods of treating anemia using formoterol or a pharmaceutically acceptable salt thereof” (Dana-Farber Cancer Institute, Inc., priority 2022, dated 2026).

Where a name gives a salt, the structure may show the parent alone.

In this assay the test system is primary human HSPCs. The assay can be described thus: Erythroid differentiation liquid culture of primary human HSPCs, flow cytometry. It is filed as cell-based. The settings on record: 1/5 μM, n=5 healthy donors. As for the experimental part:
To address this, primary human HSPCs were treated with varying doses of FF (Selleckchem). […] To ascertain if FF administration plays a role further upstream in the erythroid differentiation pathway, methylcellulose colony-formation assays were performed.
CD34+ primary human hematopoietic stem and progenitor cells (HSPCs) were obtained from Fred-Hutchinson Cancer Research center, Seattle, USA and cultured, as previously described. Formoterol fumarate was purchased from Selleckchem (#S2020) and Sigma (#F9552), dissolved (in DMSO) and stored as per manufacturer's instructions, and used at the final working concentrations as indicated.

On to `COc1ccc(C[C@@H](C)NC[C@H](O)c2ccc(O)c(NC=O)c2)cc1` [Arf, N-[2-hydroxy-5-[(1R)-1-hydroxy-2-[[(1R)-2-(4-methoxyphenyl)-1-methylethyl]amino]ethyl]phenyl]-formamide, (2R,3R)-2,3-dihydroxybutanedioate (1:1 salt)], for which the “erythroid differentiation (CD235a)” value (FIG. 2) is “induces erythroid differentiation (CD235a) dose-dependently”. Moreover, the “megakaryocytic differentiation (CD41/61)” value (FIG. 12) is listed as “does not influence megakaryocytic differentiation (CD41/61)”.
